This is an account of results in paper PMC7125190, “Native/citrullinated LL37-specific T-cells help autoantibody production in Systemic Lupus Erythematosus” (Scientific Reports, 2020).

The subject of this series is CD3+CD4+ T-cells. Description: T-cell proliferation assay (BrdU incorporation of PBMC). To be noted: SLE. It is filed as cell-based, human. As to the method: PBMCs were purified, from EDTA-treated blood, on Ficoll-Hypaque (Pharmacia Fine Chemicals, Uppsala, Sweden) were incubated (10^5 cells/well) in 96-well-flat-bottom-microplates (BD) in T cell- […]
penicillin, and 100 μg/mL streptomycin), with/without peptides. We performed assays on fresh cells, within 1-to-3 hours from collection, or on PBMCs frozen in 90% FCS-10%DMSO, whose viability we assessed by Trypan blue exclusion, at inverted microscope.
At day3 and 5, BrdU was added (1 μg/mL). BrdU-incorporation was detected by APC-labeled anti-BrdU antibody (BD Pharmingen), after surface staining by flow cytometry. Internal control for T-cell viability and proliferation was PHA treatment (2 μg/mL). SI for proliferation was calculated by dividing percent of BrdU-staining in the presence of each peptide used to stimulate cells by percent of BrdU-staining in the absence of peptide stimulation. SI for proliferation was considered positive when>3. This cut-off was obtained by calculating the mean+2DS [1.5 + 2 (0.6)] (of the stimulation indexes calculated as above) of the proliferation of HD.
Basal % of proliferation was set using, as reference, an isotype matched antibody staining (APC- […]
Assays were repeated twice with each patient. In rare cases in which background proliferation exceed antigen-specific proliferation the assay was repeated three times. […]
Background: Incorporation of labelled thymidine or its analogues reports DNA synthesis.

For “LLGDFFR(cit)KSKEKIGKEFKR(cit)IVQR(cit)IKDFLR(cit)NLVPR(cit)TES [cit-LL37, citrullinated LL37 (citrullinated at all five arginin positions)]”, the “T-cell response higher with anti-DNA antibody positivity” value is given as “but not to cit-LL37”.
